# PubChem BioAssay AID1159597 | NIAID, 2016
# Purpose: 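Role of canonical TLR signalling genes in the human macrophage LPS response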
# System: human THP-1 B5 reporter clone (monocytic leukaemia line), PMA-differentiated to macrophage-like cells
# Reagent: single siRNA against human genes
# Time to read-out: LPS for 4 h before read-out; assayed 48 to 72 h after siRNA transfection
# Conditions: LPS (Salmonella minnesota R595) for 4 h; concentration not given
# Measurement: 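After 4 h LPS, firefly TNF promoter luciferase over renilla, as a plate median/MAD robust z-score averaged across replicates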
# Reading the numbers: TNF reporter z-score: higher = stronger TNF promoter activity after LPS
# Call rule: In these data the active calls have TNF reporter z-score, replicate mean at about -1.5 or lower, or at about 1.53 or higher
# Meaning of the calls: active = clear shift in reporter, either direction; inactive = little shift in reporter
# The whole screen tested 756 reagents; shown is a part drawn at random. 140 of all reagents (19%) count as active. 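Calls mark clear shifts in either direction, lowered or raised; calls are per siRNA, gene-level medians over six siRNAs not deposited.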 The numbers tell different reagents against one gene apart. Not given: the amount of reagent.
target,reagent,"TNF reporter z-score, replicate mean",call
IFNAR2 (interferon alpha and beta receptor subunit 2),1,-2.74,active
IFNAR2 (interferon alpha and beta receptor subunit 2),2,-1.29,inactive
IFNAR2 (interferon alpha and beta receptor subunit 2),3,-1.67,active
IFNAR2 (interferon alpha and beta receptor subunit 2),4,-1.07,inactive
IFNAR2 (interferon alpha and beta receptor subunit 2),5,-0.501,inactive
IFNAR2 (interferon alpha and beta receptor subunit 2),6,-0.794,inactive
TLR9 (toll like receptor 9),1,-0.985,inactive
TLR9 (toll like receptor 9),2,0.0261,inactive
TLR9 (toll like receptor 9),3,-3.32,active
TLR9 (toll like receptor 9),4,0.94,inactive
TLR9 (toll like receptor 9),5,-0.0951,inactive
TLR9 (toll like receptor 9),6,0.0565,inactive
STAT1 (signal transducer and activator of transcription 1),1,-0.507,inactive
STAT1 (signal transducer and activator of transcription 1),2,-0.57,inactive
STAT1 (signal transducer and activator of transcription 1),3,0.469,inactive
STAT1 (signal transducer and activator of transcription 1),4,-0.319,inactive
STAT1 (signal transducer and activator of transcription 1),5,0.846,inactive
STAT1 (signal transducer and activator of transcription 1),6,-2.66,active
IL33R (interleukin 33 receptor),1,-0.189,inactive
IL33R (interleukin 33 receptor),2,-1.06,inactive
IL33R (interleukin 33 receptor),3,0.561,inactive
IL33R (interleukin 33 receptor),4,0.778,inactive
IL33R (interleukin 33 receptor),5,-0.207,inactive
IL33R (interleukin 33 receptor),6,-0.0549,inactive

Called active, among the entries above:
target,reagent,"TNF reporter z-score, replicate mean",call
IFNAR2 (interferon alpha and beta receptor subunit 2),1,-2.74,active
IFNAR2 (interferon alpha and beta receptor subunit 2),3,-1.67,active
TLR9 (toll like receptor 9),3,-3.32,active
STAT1 (signal transducer and activator of transcription 1),6,-2.66,active

More entries follow.
target,reagent,"TNF reporter z-score, replicate mean",call
ITGAX (integrin subunit alpha X),1,-1.13,inactive
ITGAX (integrin subunit alpha X),2,0.0372,inactive
ITGAX (integrin subunit alpha X),3,-0.423,inactive
ITGAX (integrin subunit alpha X),4,-2.56,active
ITGAX (integrin subunit alpha X),5,-1.25,inactive
ITGAX (integrin subunit alpha X),6,-0.645,inactive
TRADD (TNFRSF1A associated via death domain),1,-1.72,active
TRADD (TNFRSF1A associated via death domain),2,-0.189,inactive
TRADD (TNFRSF1A associated via death domain),3,0.488,inactive
TRADD (TNFRSF1A associated via death domain),4,0.124,inactive
TRADD (TNFRSF1A associated via death domain),5,1.34,inactive
TRADD (TNFRSF1A associated via death domain),6,-1.15,inactive
OTUD5 (OTU deubiquitinase 5),1,0.384,inactive
OTUD5 (OTU deubiquitinase 5),2,-1.92,active
OTUD5 (OTU deubiquitinase 5),3,-1.2,inactive
OTUD5 (OTU deubiquitinase 5),4,-0.842,inactive
OTUD5 (OTU deubiquitinase 5),5,-1.81,active
OTUD5 (OTU deubiquitinase 5),6,-0.817,inactive
TLR2 (toll like receptor 2),1,1.18,inactive
TLR2 (toll like receptor 2),2,0.674,inactive
TLR2 (toll like receptor 2),3,-0.621,inactive
TLR2 (toll like receptor 2),4,0.151,inactive
TLR2 (toll like receptor 2),5,-0.629,inactive
TLR2 (toll like receptor 2),6,-0.437,inactive
